Measured values: PubChem BioAssay AID743255 (National Center for Advancing Translational Sciences (NCATS), 2014)
In all, about 390,000 compounds went through this assay and about 910 (0.23%) were called active. The shares of active, inactive and inconclusive entries below differ from those in the screen. The call rests on the fitted dose curve; in most records, active means well fitted inhibition curve with a large enough effect; inconclusive means small, poorly fitted or top-dose-only effect; inactive means no such curve, though single readings can be large or run the other way. Potencies beside an inconclusive call are fits to weak or partial responses and may not hold up.

Amino acid sequences for entries named in this document (tags omitted). A change or cut given only in a name is not applied to a line headed by its entry.
UniProt O94782: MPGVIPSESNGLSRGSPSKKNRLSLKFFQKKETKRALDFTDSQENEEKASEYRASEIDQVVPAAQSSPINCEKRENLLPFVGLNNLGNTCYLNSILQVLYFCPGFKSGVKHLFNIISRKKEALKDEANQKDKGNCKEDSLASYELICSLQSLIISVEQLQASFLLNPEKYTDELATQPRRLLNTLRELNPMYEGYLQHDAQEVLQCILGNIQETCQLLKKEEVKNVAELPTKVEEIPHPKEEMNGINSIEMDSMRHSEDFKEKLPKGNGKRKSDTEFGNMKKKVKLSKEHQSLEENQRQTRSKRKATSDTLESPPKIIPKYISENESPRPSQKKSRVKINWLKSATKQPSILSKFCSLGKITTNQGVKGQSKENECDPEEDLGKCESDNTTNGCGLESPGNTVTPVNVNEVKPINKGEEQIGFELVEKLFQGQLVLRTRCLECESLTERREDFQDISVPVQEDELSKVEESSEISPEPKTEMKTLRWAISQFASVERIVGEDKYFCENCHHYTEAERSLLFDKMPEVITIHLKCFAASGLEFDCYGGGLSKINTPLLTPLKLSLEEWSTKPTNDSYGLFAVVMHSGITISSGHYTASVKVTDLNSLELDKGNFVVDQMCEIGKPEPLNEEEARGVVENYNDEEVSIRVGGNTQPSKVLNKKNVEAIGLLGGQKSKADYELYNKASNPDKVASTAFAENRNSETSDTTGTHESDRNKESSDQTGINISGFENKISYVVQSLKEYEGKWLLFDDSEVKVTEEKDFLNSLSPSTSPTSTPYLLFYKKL

These compounds were tested against Ubiquitin carboxyl-terminal hydrolase 1 (Homo sapiens) (UniProt O94782) (assay: Inhibitors of USP1/UAF1: Primary Screen). Settings: recombinant USP1/UAF1, Ub-Rhodamine cleavage fluorescence; activity change, negative = inhibition: at 57.1 µM (top of the series).
Procedure, shortened: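 USP1/UAF1 complex (1 nM) preincubated 15 min at room temperature with compound, then Ub-Rho substrate (150 nM final) added. Kinetic fluorescence at 480/540 nm over 6 reads at 60 s intervals; 50 mM HEPES pH 7.8, 0.5 mM EDTA, 0.1 mg/ml BSA, 1 mM TCEP, 0.01% Tween-20.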
Further: nearly all actives have a fitted effect of over 60% in size.
On the % scale 0 is the no-effect control and ±100 the full control effect; potency means the concentration at half of the fitted maximal effect.

Activity change, negative = inhibition, inactive:
CCCOc1ccc(C(=O)Nc2ccc3oc(-c4ccc(N(C)C)cc4)nc3c2)cc1 -10.5%
CCCS(=O)(=O)c1cscc1NC(=O)c1c(-c2c(F)cccc2Cl)noc1C -8.94%
Nc1ccccc1SCC(=O)Nc1nccs1 -17.3%
Cc1cc(C)cc(NC(=O)CSc2nnc(CNC(=O)c3ccco3)n2C)c1 -4.9%
Cc1ccc(S(=O)(=O)/N=C2/NC(=O)/C(=C/c3ccccc3)S2)cc1 -18%
CC(C)(C)NC(=S)Nc1ccc(Br)cc1 -16.3%
COCCCNCCCCOc1ccccc1-c1ccccc1 -2.23%
Cc1ccc(C(=O)NCC(=O)NCC(=O)OCC(=O)c2ccc([N+](=O)[O-])cc2)cc1 -8.46%
O=C(O)c1cccc(NC(=S)NC(=O)c2ccc(-c3ccc(Cl)cc3)o2)c1 -7.26%
N=c1c2c(-c3ccccc3)c(-c3ccccc3)n(Cc3ccccc3)c2ncn1CCCn1ccnc1 -17.5%
COc1ccc(/C=C/C(=O)c2ccc3c4c(cccc24)CC3)cc1OC -13.8%
CCCCn1c(=N)n(CC(=O)c2ccc(Br)s2)c2ccccc21 -23%
Cc1nn(-c2ccc(Cl)cc2)c2nc(-c3cccnc3)cc(C(F)(F)F)c12 -21%
FC(F)Oc1ccc(NC(=S)N2CCc3ccccc32)cc1 -10.2%
Cc1ccc(NC(=O)c2cc(S(=O)(=O)N3CCCC3)cn2C)cc1C -16.9%
O=C1CN=C(Nc2ccccc2)N1Cc1cccs1 -16.3%
CCN(CC)c1cc2c(cc1F)c(=O)c(S(=O)(=O)c1ccccc1)cn2Cc1ccccc1 -11.6%
O=C1/C(=C/c2cccnc2)SC(=S)N1C1CCS(=O)(=O)C1 (configuration not stated) -16.9%
CCN(CC)c1ccc(NC(=O)CCS(=O)(=O)c2ccc(Br)cc2)c(C)c1 -18.1%
COc1cc(C2CC(=O)Nc3c2c(=O)n(C)c(=O)n3C)cc(OC)c1OC (configuration not stated) -8.01%
CCc1ccccc1Nc1nn2c(=O)c3ccc(C(=O)Nc4cc(C)cc(C)c4)cc3nc2s1 -36.9%
Cc1cc([N+](=O)[O-])ccc1NCc1ccc2c(c1)OCCO2 -19.9%
COc1ccc(-c2csc(NC(=O)Cc3ccccc3)n2)cc1OC -4.32%
CN(C)CCCNC(=O)c1ccc(Cl)c(S(=O)(=O)N2CCCCCC2)c1 -4.2%
Cc1ccc(CC(=O)Nc2c(C(=O)N3CCN(c4ccccc4F)CC3)oc3ccccc23)cc1 10.1%
O=C(NCc1ccccc1Cl)C1CCCN1C(=O)NCc1ccccc1 (configuration not stated) -22.7%
CCCNC(=O)c1ccc2c(=O)c(O)c(C)[nH]c2c1 -22.2%
Cn1c(SCC(=O)NCC2CCCO2)ncc(C(=O)Nc2ccccc2)c1=O (configuration not stated) -7.66%

Potency, inconclusive:
COc1ccc(-c2cc3ncccc3cn2)cc1 10 µM [inhibitor, partial curve]
CCNc1nc(SCC(=O)Nc2ccc(Cl)c(Cl)c2)nc(N2CCOCC2)n1 0.794 µM [inhibitor, full curve]
NC(=O)C1CCN(c2oc(-c3cccs3)nc2S(=O)(=O)c2ccc(Br)cc2)CC1 0.708 µM [inhibitor, full curve]
C/C(=N\NS(=O)(=O)c1ccc(C)cc1)c1cc2ccccc2oc1=O 10 µM [inhibitor, partial curve, poor fit]
Cc1cnc(NC(=O)CSC(=S)N2CCOCC2)s1 44.7 µM [inhibitor, partial curve, poor fit]
CCO[C@@H]1OC(C(=O)Nc2ccccc2)=C[C@H](c2ccc(C(F)(F)F)cc2)[C@H]1CCCO 3.16 µM [inhibitor, full curve]
C/C(=N\Nc1nc2ccccc2s1)c1cccs1 39.8 µM [inhibitor, partial curve]
Cc1ccc(S(=O)(=O)Nc2c(C)n(C)n(-c3ccccc3)c2=O)cc1C(=O)OCC(=O)N1CCCC(C)C1 (configuration not stated) 0.282 µM [inhibitor, full curve, poor fit]
COc1ccc(NC(=O)Cn2nc(C(F)(F)F)c3c2CCCC3)cc1OC 4.47 µM [inhibitor, full curve, poor fit]
CCCS(=O)(=O)c1ncc(Cl)c(C(=O)Nc2c(C(=O)Nc3ccccc3)oc3ccccc23)n1 3.98 µM [inhibitor, partial curve]
Cc1ccc(-n2ncc(C(=O)NC3CCCCC3)c2C2CCN(C(=O)OC(C)(C)C)CC2)cc1 39.8 µM [inhibitor, single point]
CN(CC(=O)Nc1nc2ccccc2s1)S(=O)(=O)c1ccc(Cl)cc1 56.2 µM [inhibitor, partial curve, poor fit]
COc1ccc(CNc2nc(Cl)c(C#N)s2)cc1 79.4 µM [inhibitor, partial curve, poor fit]
CC(C)(C)NC(=O)C(c1ccsc1)N(CCc1ccccc1)C(=O)Cn1nnc2ccccc21 (configuration not stated) 0.631 µM [inhibitor, full curve, poor fit]
Cc1ccc(NC(=O)Nc2cn(CC(C)C)c(=O)c3ccccc23)cc1N(C)C 28.2 µM [inhibitor, partial curve]
CCN1C(=O)C(=CC=CN(C)c2ccccc2)SC1=S 5.62 µM [inhibitor, full curve, poor fit]
NC(=O)CC(NC(=O)c1cccc(Br)c1)c1ccc(NC2CCCCCCC2)c([N+](=O)[O-])c1 (configuration not stated) 89.1 µM [inhibitor, partial curve, poor fit]
O=C(COC(=O)c1ccc([N+](=O)[O-])o1)NCc1ccc(F)cc1 39.8 µM [inhibitor, partial curve, poor fit]
FC(F)(F)COc1nc(OCC(F)(F)F)nc(N2CCN(c3ccccc3)CC2)n1 35.5 µM [inhibitor, partial curve]
Cc1cccn2c(=O)cc(CSc3nnc(NC(=O)COc4ccccc4)s3)nc12 100 µM [inhibitor, partial curve, poor fit]
COc1ccc(CNc2nc3c(-c4cccc(F)c4)nnn3c3ccccc23)cc1 12.6 µM [inhibitor, partial curve, poor fit]
COc1cc(Cl)c(C)cc1NC(=O)CCc1nc2cccnc2n1Cc1cccs1 7.94 µM [inhibitor, single point]
Cc1ccc(S(=O)(=O)NCc2nc3nc(C)cc(C)n3n2)cc1 1.41 µM [inhibitor, full curve, poor fit]
CC[C@]12c3[nH]c4ccc(Cl)cc4c3CCN1C(=O)[C@@H](CC(=O)NCCN1CCOCC1)C[C@@H]2C(=O)N1CCN(C(=O)C2CC2)CC1 44.7 µM [inhibitor, partial curve, poor fit]
O=C(CCCN1C(=O)/C(=C/c2ccccc2OC(F)F)SC1=S)Nc1cccnc1 0.251 µM [inhibitor, full curve, poor fit]
COc1ccc(NC(=O)C(=O)NCCCO)cc1Cl 7.08 µM [inhibitor, partial curve, poor fit]
COc1ccc(S(=O)(=O)Nc2cc(C)ccn2)cc1OC 5.62 µM [inhibitor, partial curve, poor fit]
CN(CC(=O)Nc1nc2ccc(F)cc2s1)S(=O)(=O)c1ccc(Cl)cc1 0.224 µM [inhibitor, full curve, poor fit]
CCOC(=O)c1c(C)[nH]c(C(=O)CN2C(=O)NC(C)(CC(C)C)C2=O)c1C (configuration not stated) 35.5 µM [inhibitor, partial curve, poor fit]
O=C(NC1CC1)C1=C[C@@H](c2c[nH]c3ccccc23)C[C@@H](OCc2ccc(CO)cc2)O1 28.2 µM [inhibitor, single point]
O=C(NCc1nc2ccccc2[nH]1)C1=C[C@@H](C2CCCCC2)C[C@@H](OCCCCO)O1 70.8 µM [inhibitor, partial curve, poor fit]
CC(O)c1ccc(OCCN(C)c2ccccn2)cc1 (configuration not stated) 0.708 µM [inhibitor, full curve, poor fit]
COC(=O)c1ccc(C2C(C(=O)c3ccco3)=C(O)C(=O)N2c2cc(C)on2)cc1 (configuration not stated) 12.6 µM [inhibitor, partial curve, poor fit]
COc1ccc(C(=O)NCC(c2cccs2)S(=O)(=O)c2ccc(C)cc2)cc1 (configuration not stated) 0.199 µM [inhibitor, full curve]
CCCCNC(=O)C(CC)Sc1nnc(-c2ccc(OC)c(OC)c2)c(-c2ccc(OC)c(OC)c2)n1 (configuration not stated) 10 µM [inhibitor, full curve, poor fit]
COc1ccc(-c2cc(C(=O)Nc3c(C)nn(Cc4ccc(F)cc4)c3C)no2)cc1OC 0.562 µM [inhibitor, full curve, poor fit]
CCOc1ccccc1NC(=O)C(C)Sc1nc2c(c(=O)[nH]1)CCCC2 (configuration not stated) 5.62 µM [inhibitor, single point]
CC(C)NC(=O)N(C)C[C@H]1Oc2c(NC(=O)c3ccc(-c4nccs4)cc3)cccc2C(=O)N([C@@H](C)CO)C[C@H]1C 5.01 µM [inhibitor, single point]

Ordered by SMILES length (largest number first): part of the list above
Potency, inconclusive:
Cc1ccc(-n2ncc(C(=O)NC3CCCCC3)c2C2CCN(C(=O)OC(C)(C)C)CC2)cc1 39.8 µM [inhibitor, single point]
COc1cc(Cl)c(C)cc1NC(=O)CCc1nc2cccnc2n1Cc1cccs1 7.94 µM [inhibitor, single point]
C/C(=N\Nc1nc2ccccc2s1)c1cccs1 39.8 µM [inhibitor, partial curve]

Next part.

Potency, active:
NC(=O)c1cc[n+](CC2=C(C(=O)O)N3C(=O)[C@@H](NC(=O)C(c4ccccc4)S(=O)(=O)[O-])[C@H]3SC2)cc1 (some centres not stated) 35.5 µM
